Results deposited as PubChem BioAssay AID504804 (Drosophila RNAi Screening Center, 2011)
In all, the deposit lists about 19,000 reagents; shown is an unselected part of those that have a named target and a result. In the full data, 47 (0.25%) got an active call. 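Signals are raw, not normalised; exact z-scores behind calls not deposited; actives needed confirmation, so some wells reaching 2 SD are inactive.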 The numbers tell different reagents against one gene apart. A plus sign joins genes that one reagent is predicted to hit.

- Test: 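Knock-downs shielding fly cells from apoptosis caused by DNA damage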 (primary screen)
- Cells: Drosophila Kc cells
- Reagents: long dsRNA against Drosophila genes, 0.5 µg dsRNA per well
- Duration: 96 h (48 h knock-down, then 48 h drug)
- Challenge: doxorubicin 5 µg/ml for 48 h, added 48 h after dsRNA
- Measurement: 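Viability measured as cellular ATP by luminescence after 48 h knock-down then 48 h doxorubicin at 5 µg/ml; unnormalised plate counts for each replicate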
- Scale: raw ATP luminescence: higher = more viable cells, protection from doxorubicin
- Call rule: 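z-score of 2 or more over plate mean in both duplicates, retained only when retests and separate dsRNAs confirm the protection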

| Target gene | reagent | SD above plate mean | raw ATP luminescence, replicate 1 | raw ATP luminescence, replicate 2 | outcome |
| --- | --- | --- | --- | --- | --- |
| Crz (Corazonin) | 1 | – | 77760 | 61020 | inactive |
| Cap-D3 (Chromosome associated protein D3) | 1 | – | 26830 | 24887 | inactive |
| CG14913 | 1 | – | 44950 | 72167 | inactive |
| Cyp6t1 (Cytochrome P450 6t1) | 1 | – | 3.54e5 | 3.23e5 | inactive |
| cbc (crowded by cid) | 1 | – | 81167 | 63627 | inactive |
| CG6729 | 1 | – | 91107 | 67517 | inactive |
| Gr43a (Gustatory receptor 43a) | 1 | – | 58413 | 77143 | inactive |
| CG11811 | 1 | – | 79457 | 61327 | inactive |
| thoc6 | 1 | – | 31147 | 35187 | inactive |
| CG8420 | 1 | – | 65273 | 49230 | inactive |
| Tsp42Eq (Tetraspanin 42Eq) | 1 | – | 41260 | 73580 | inactive |
| Prx6c + CG12896 + Prx6b | 1 | – | 49640 | 76467 | inactive |
| PLCXD | 1 | – | 87300 | 68147 | inactive |
| CG8191 | 1 | – | 3.35e5 | 2.95e5 | inactive |
| dmt (dalmatian) | 1 | – | 54747 | 63907 | inactive |
| CG13589 | 1 | 2 to 3 SD above plate mean | 90733 | 73693 | inactive |
| CG8768 | 1 | – | 52847 | 44773 | inactive |
| CG9948 | 1 | – | 41487 | 41453 | inactive |
| dpr19 (defective proboscis extension response 19) | 1 | – | 48373 | 58103 | inactive |
| SmB (Small ribonucleoprotein particle protein SmB) | 1 | – | 69023 | 55673 | inactive |
| Pura (Puratrophin-1-like) | 1 | – | 1.66e5 | 1.50e5 | inactive |
| Pura (Puratrophin-1-like) | 2 | – | 85800 | 94797 | inactive |
| Pura (Puratrophin-1-like) | 3 | – | 77570 | 90157 | inactive |
| Pura (Puratrophin-1-like) | 4 | – | 76237 | 70110 | inactive |
| Pura (Puratrophin-1-like) | 5 | – | 89800 | 84277 | inactive |
| aPKC (atypical protein kinase C) | 1 | – | 64743 | 95070 | inactive |
| CG9014 | 1 | – | 72950 | 77477 | inactive |
| Gycbeta100B (Guanylyl cyclase beta-subunit at 100B) | 1 | – | 1.91e5 | 1.99e5 | inactive |
| Gycbeta100B (Guanylyl cyclase beta-subunit at 100B) | 2 | – | 2.32e5 | 2.15e5 | inactive |
| CG33271 | 1 | – | 73357 | 47123 | inactive |
| CG30416 | 1 | – | 80690 | 61083 | inactive |
| CG31544 (retired record) | 1 | – | 20850 | 63350 | inactive |
| PGAP5 (Post-GPI attachment to proteins 5) | 1 | – | 51103 | 65527 | inactive |
| IP3K2 (Inositol 1,4,5-triphosphate kinase 2) | 1 | – | 3.60e5 | 3.39e5 | inactive |
| IP3K2 (Inositol 1,4,5-triphosphate kinase 2) | 2 | – | 3.69e5 | 3.74e5 | inactive |
| CG3280 (retired record) | 1 | – | 71180 | 63860 | inactive |
| CG31213 | 1 | – | 18220 | 18730 | inactive |
| CG31213 | 2 | – | 17910 | 25460 | inactive |
| IscU (Iron-sulfur cluster assembly enzyme) | 1 | – | 34530 | 39327 | inactive |
| CG4073 | 1 | – | 60663 | 74727 | inactive |
| CG13326 | 1 | – | 63417 | 53347 | inactive |
| CG3288 | 1 | – | 63717 | 52747 | inactive |
| CG12914 | 1 | – | 53803 | 62953 | inactive |
| Mal-A2 (Maltase A2) | 1 | – | 52027 | 71173 | inactive |
| Set | 1 | – | 53937 | 25407 | inactive |
| CG12917 | 1 | – | 41413 | 68613 | inactive |
| CG33773 | 1 | – | 2.25e5 | 2.37e5 | inactive |
| Fad2 | 1 | – | 70183 | 61577 | inactive |
| eIF3f1 (eukaryotic translation initiation factor 3 subunit f1) | 1 | – | 64263 | 61220 | inactive |
| Atg13 (Autophagy-related 13) | 1 | – | 50493 | 43780 | inactive |
| IKKbeta (I-kappaB kinase beta) | 1 | – | 39197 | 48290 | inactive |
| Dfd (Deformed) | 1 | – | 77493 | 61780 | inactive |
| CG10916 | 1 | – | 51480 | 57380 | inactive |
| Octbeta3R (Octopamine beta3 receptor) | 1 | – | 53217 | 62767 | inactive |
| Octbeta3R (Octopamine beta3 receptor) | 2 | – | 49880 | 58183 | inactive |
| CG6108 (retired record) | 1 | – | 73513 | 77393 | inactive |
| Membrin | 1 | – | 86137 | 75450 | inactive |
| LRP1 (LDL receptor protein 1) | 1 | – | 56507 | 74203 | inactive |
| CG4658 | 1 | – | 39017 | 53193 | inactive |
| CG3634 | 1 | – | 63587 | 61693 | inactive |
| Ir67b (Ionotropic receptor 67b) | 1 | – | 56807 | 54550 | inactive |
| Acbp4 (Acyl-CoA binding protein 4) | 1 | – | 52723 | 68197 | inactive |
| CG13364 | 1 | – | 55580 | 52460 | inactive |
| CG13364 | 2 | – | 3.04e5 | 3.12e5 | inactive |

Continued; the last 9 above are carried over.
| Target gene | reagent | SD above plate mean | raw ATP luminescence, replicate 1 | raw ATP luminescence, replicate 2 | outcome |
| --- | --- | --- | --- | --- | --- |
| CG6108 (retired record) | 1 | – | 73513 | 77393 | inactive |
| Membrin | 1 | – | 86137 | 75450 | inactive |
| LRP1 (LDL receptor protein 1) | 1 | – | 56507 | 74203 | inactive |
| CG4658 | 1 | – | 39017 | 53193 | inactive |
| CG3634 | 1 | – | 63587 | 61693 | inactive |
| Ir67b (Ionotropic receptor 67b) | 1 | – | 56807 | 54550 | inactive |
| Acbp4 (Acyl-CoA binding protein 4) | 1 | – | 52723 | 68197 | inactive |
| CG13364 | 1 | – | 55580 | 52460 | inactive |
| CG13364 | 2 | – | 3.04e5 | 3.12e5 | inactive |
| Stam (Signal transducing adaptor molecule) | 1 | – | 98537 | 63827 | inactive |
| CG7366 | 1 | – | 2.55e5 | 2.35e5 | inactive |
| Cpr65Av (Cuticular protein 65Av) | 1 | – | 76160 | 77523 | inactive |
| nsl1 (non-specific lethal 1) | 1 | – | 43537 | 40963 | inactive |
| Tsp66A + CG42661 + CG42660 | 1 | – | 74950 | 82910 | inactive |
| Pino (Pinocchio) | 1 | – | 1.18e5 | 89670 | inactive |
| Pino (Pinocchio) | 2 | – | 1.17e5 | 48850 | inactive |
| CG34136 | 1 | – | 58427 | 52317 | inactive |
| Gli (Gliotactin) | 1 | – | 61443 | 74420 | inactive |
| CG5913 | 1 | – | 57010 | 63190 | inactive |
| Rcd-1r + CG13102 | 1 | – | 43087 | 80763 | inactive |
| CG3065 | 1 | – | 56830 | 51657 | inactive |
| Nost (Nostrin) | 1 | – | 35400 | 31680 | inactive |
| Nost (Nostrin) | 2 | – | 33250 | 28960 | inactive |
| CG10919 | 1 | – | 63167 | 66763 | inactive |
| CG5172 | 1 | – | 2.61e5 | 2.50e5 | inactive |
| CG4945 | 1 | – | 44343 | 61313 | inactive |
| CG15876 | 1 | – | 88877 | 87537 | inactive |
| CG4282 | 1 | – | 87940 | 77737 | inactive |
| CG2493 | 1 | – | 95523 | 75417 | inactive |
| Thor | 1 | – | 93990 | 62017 | inactive |
| CG9222 | 1 | – | 38830 | 21330 | inactive |
| Srg3 (Sting-regulated gene 3) | 1 | – | 1.52e5 | 1.01e5 | inactive |
| Srg3 (Sting-regulated gene 3) | 2 | – | 80850 | 57810 | inactive |
| Sem1 (Suppressor of exocyst mutations 1) | 1 | – | 20220 | 20250 | inactive |
| Hexim (Hexamethylene bisacetamide inducible) | 1 | – | 92473 | 36507 | inactive |
| dyw (daywake) | 1 | – | 44370 | 54230 | inactive |
| niki (nimA-like kinase) | 1 | – | 54960 | 55700 | inactive |
| CG10589 | 1 | – | 57210 | 58157 | inactive |
| OtopLa (Otopetrin-like a) | 1 | – | 19470 | 29780 | inactive |
| OtopLa (Otopetrin-like a) | 2 | – | 54360 | 50340 | inactive |
| CG9471 | 1 | – | 65213 | 54517 | inactive |
| CG16959 | 1 | at least 2 SD above plate mean | 42413 | 41210 | active |
| Rgk3 (Rad, Gem/Kir family member 3) | 1 | – | 21233 | 32430 | inactive |
| Rgk3 (Rad, Gem/Kir family member 3) | 2 | – | 59120 | 59110 | inactive |
| Rgk3 (Rad, Gem/Kir family member 3) | 3 | – | 50943 | 49810 | inactive |
| Rgk3 (Rad, Gem/Kir family member 3) | 4 | – | 52403 | 53977 | inactive |
| CG5246 | 1 | – | 84910 | 73120 | inactive |
| CG4730 | 1 | – | 46990 | 74080 | inactive |
| Ufd4 (Ubiquitin fusion-degradation 4-like) | 1 | – | 39987 | 71757 | inactive |
| CG15249 | 1 | – | 3.53e5 | 3.59e5 | inactive |
| Oatp30B (Organic anion transporting polypeptide 30B) | 1 | – | 84297 | 66877 | inactive |
| Scr (Sex combs reduced) | 1 | – | 33403 | 36393 | inactive |
